Measured values taken from patent US9776972B2, “Pyrazole derivatives as arginine methyltransferase inhibitors and uses thereof” (priority 2013, dated 2017).
At least one read-out could not be matched to a standard name with certainty.

Test system: mono-methyl arginine in RKO cells
Test: RKO Methylation Assay, In Cell Western (ICW) for mono-methyl arginine and DNA content
Format: cell-based
Settings: 72 hours, percent activation
Text: RKO adherent cells were purchased from ATCC (American Type Culture Collection), Manassas, Va., USA. DMEM/Glutamax medium, penicillin-streptomycin, heat inactivated fetal bovine serum, 0.05% trypsin and D-PBS were purchased from Life Technologies, Grand Island, N.Y., USA. Odyssey blocking buffer, 800CW goat anti-rabbit IgG (H+L) antibody, and Licor Odyssey infrared scanner were purchased from Licor Biosciences, Lincoln, Nebr., USA. Mono-methyl arginine antibody was purchased from Cell Signaling Technology, Danvers, Mass., USA. Methanol was purchased from VWR, Franklin, Mass., USA. 10% Tween 20 was purchased from KPL, Inc., Gaithersburg, Md., USA. DRAQ5 was purchased from Biostatus Limited, Leicestershire, UK. […]
First, the ratio for each well was determined by:
Each plate included fourteen control wells of DMSO only treatment (minimum activation) as well as fourteen control wells for maximum activation treated with 20 μM of a reference compound. The average of the ratio values for each control type was calculated and used to determine the percent activation for each test well in the plate. […] Percent activation was determined and EC30 curves were generated using triplicate wells per concentration of compound.

## CNCCN(C)Cc1c[nH]nc1-c1ccc(Oc2ccccc2)c(C#N)c1 [Compound 234]
Class symbols
  EC30 (In Cell Western data): A (“A” indicates an EC30 ≦ 3.00 μM)
Single experiment or average of multiple experiments
  EC30 (In Cell Western data, Numerical, μM): 0.759 µM
